# Results deposited as PubChem BioAssay AID504774 (Drosophila RNAi Screening Center, 2011).
# Purpose: 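Fly genes whose loss alters survival after alkylation damage to DNA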 (primary screen)
# Cell system: Drosophila Kc167 cells
# Knock-down reagent: long dsRNA against Drosophila genes, about 0.25 µg dsRNA per well
# Duration: about 6 days: 3 days knock-down, then 3 days with or without MMS
# Conditions: methyl methanesulphonate 0.004% (w/v) for 3 days after knock-down
# Detection: 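Viability in wells given MMS, read as ATP luminescence, normalised by quantiles plate by plate and averaged across replicates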
# Scale: mean viability with MMS: higher = more surviving cells after MMS
# The screen tested about 23,000 reagents; this is a random part of those with a known target gene and a result. 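Values are quantile-normalised luminescence on an arbitrary scale; higher means more cells surviving MMS.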 Names joined by + are all predicted targets of the reagent. Further read-outs or replicates are left out here.
gene,amplicon,mean viability with MMS
robl37BC,DRSC02472,3.56e6
CG4650,DRSC02767,3.47e6
Sec61alpha,DRSC03256,3.08e6
CG9132,DRSC20159,3.72e6
CG13028,DRSC09908,3.57e6
CG7017,DRSC10762,3.51e6
CG30036,DRSC21334,3.55e6
CG17140 + CG17139,DRSC02585,3.49e6
CG17140 + CG17139,DRSC02586,3.59e6
CG5973,DRSC02918,3.82e6
ldd,DRSC20558,3.52e6
ldd,DRSC22696,3.63e6
uno,DRSC07244,3.78e6
CG7907,DRSC16339,3.73e6
CG14892,DRSC15014,3.32e6
CG3165,DRSC00573,3.58e6
CG11566 (retired record) + stg1,DRSC20473,2.78e6
CG11566 (retired record) + stg1,DRSC20481,3.37e6
CG11566 (retired record) + stg1,DRSC20482,3.52e6
CG11566 (retired record) + stg1,DRSC20483,3.52e6
fws,DRSC02969,3.39e6
CG32212 + hpRNA:CR33940,DRSC09618,3.65e6
CG15012,DRSC08465,3.72e6
LysP,DRSC08676,3.55e6
CG4957,DRSC02793,3.95e6
CG34129,DRSC15960,3.37e6
CG42813 + CG42814,DRSC15939,3.59e6
CG42813 + CG42814,DRSC15940,3.59e6

Not a retest: an excerpt of the list.
gene,amplicon,mean viability with MMS
CG30036,DRSC21334,3.55e6
CG17140 + CG17139,DRSC02585,3.49e6
CG17140 + CG17139,DRSC02586,3.59e6
